Experimental data from article PMC6013907.
Positions count from the first letter of the chain named. In names and notes the source's numbering stands. These are yes or no findings as the source states them, for the method shown. Some entries that bind do so weakly or less than the wild type. For some of these results: Where a sequence is shown, tags or fusion partners need not be part of it. Values belong to the binder of their own block, whether it stands above or below them.

Legend:
[1] = target: T1, Mia40 (S. cerevisiae (endogenous in mitochondria isolated from WT yeast)), P36046; experiment: in organello import with non-reducing SDS-PAGE and autoradiography (disulfide-bonded import intermediate); radiolabeled protein incubated with mitochondria isolated from WT yeast in import buffer (250 mM sucrose, 80 mM KCl, 10 mM MOPS-KOH, pH 7.2, 2 mM ATP, 2 mM NADH) at 25 °C; stopped with 50 mM IA; samples in Laemmli buffer with 50 mM IA for non-reducing SDS-PAGE; details: remark: other sources report otherwise
T1 chain: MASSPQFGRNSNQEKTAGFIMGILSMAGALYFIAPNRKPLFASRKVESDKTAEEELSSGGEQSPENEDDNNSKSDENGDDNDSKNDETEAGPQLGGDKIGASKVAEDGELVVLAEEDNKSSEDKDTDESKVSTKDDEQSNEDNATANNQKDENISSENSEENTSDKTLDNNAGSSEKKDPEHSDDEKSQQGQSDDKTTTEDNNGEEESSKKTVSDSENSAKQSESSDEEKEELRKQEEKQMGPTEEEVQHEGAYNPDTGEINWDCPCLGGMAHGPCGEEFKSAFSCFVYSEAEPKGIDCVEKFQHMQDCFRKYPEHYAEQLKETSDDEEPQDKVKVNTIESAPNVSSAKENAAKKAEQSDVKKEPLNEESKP

[2] = target: T2, Mia40 (S. cerevisiae (endogenous in mitochondria isolated from WT yeast)) (UniProt P36046); experiment: as above
T2 sequence: T1 chain

binding [1]: binds
B1: Cox12, Q01519 1-83 (protein)
chain: MADQENSPLHTVGFDARFPQQNQTKHCWQSYVDYHKCVNMKGEDFAPCKVFWKTYNALCPLDWIEKWDDQREKGIFAGDINSD
modifications: here or on the partner: [35S]methionine-labeled

binding [2]: binds
B2: Cox12_(C27S-FLAG) (protein, UniProt Q01519 1-83)
chain: B1 chain with C27S
modifications: [35S]methionine-labeled

binding [2]: binds
B3: Cox12_(C37S-FLAG) (protein, UniProt Q01519 1-83)
chain: B1 chain with C37S
modifications: [35S]methionine-labeled

binding [2]: no binding
B4: Cox12_(C-FREE) (protein, UniProt Q01519 1-83)
chain: B1 chain with C27S, C37S, C48S, C59S
modifications: [35S]methionine-labeled
